Experimental data reported in the supplement of paper PMC11732987, “Enantioselective OTUD7B fragment discovery through chemoproteomics screening and high-throughput optimisation” (Communications Chemistry, 2025).
The list shows a part of the results. The data scatter; read single values as rough.

tested on: T1, ZNF784 C301; assay: log2 mean competition ratio of IA-DTB cysteine labelling (DMSO/compound) (log2 ratio); higher = stronger cysteine engagement by compound; conditions: 50 µM; treatment time: 4 h; cell line lysate: HEK293T
T1 sequence (whole entry): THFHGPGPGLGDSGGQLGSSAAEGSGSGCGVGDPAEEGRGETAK
Method: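 IA-DTB competitive cysteine chemoproteomics in HEK293T RIPA lysate. Lysates were treated with compound 29 or 30 at 50 or 200 µM for 4 h, then IA-DTB (500 µM, 1 h), trypsin-digested, NeutrAvidin-enriched and analysed by diaPASEF. Competition ratio = intensity DMSO / intensity compound (n=4 treated, n=64 DMSO); binding: mean log2 CR ≥ 1 and p ≤ 0.05 plus QC filters. Target is the cysteine site.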

Structure (SMILES) | log2 mean competition ratio
O=C(CCl)N[C@H]1CCCc2ccccc21 | -0.165
O=C(CCl)N[C@@H]1CCCc2ccccc21 | -0.139

same assay, conditions: 200 µM; treatment time: 4 h; cell line lysate: HEK293T

Structure (SMILES) | log2 mean competition ratio
O=C(CCl)N[C@H]1CCCc2ccccc21 | -0.671
O=C(CCl)N[C@@H]1CCCc2ccccc21 | -0.511
